{"source": "PubChem BioAssay AID1347075", "about": "(National Center for Advancing Translational Sciences (NCATS), 2019)", "note": "Among all 400,000 compounds or so, about 5,500 (1.4%) were called active. Inconclusive means that the source gave no clear call. Such entries were picked first, then a sample of the others. Calls follow the shape of the dose curve; as a rule, active = well fitted cell-killing curve with a large enough effect; inconclusive = small, poorly fitted or top-dose-only effect, or effect the other way; inactive = flat fitted curve, though single readings scatter. A potency beside an inconclusive call is a rough fit, not a confirmed value. % is scaled to controls: 0 for no effect and ±100 for the full control effect; potency is read from the fitted curve at half-maximal effect.", "data": [{"assay": "qHTS assay for MDR1-selective chemotherapeutics: Primary screen using the parental adenocarcinoma cell KB-3-1; also: nearly all actives have a fitted effect of over 60% in size", "details": "KB-3-1 viability, CellTiter-Glo ATP luminescence, 72 h; activity change, negative = cytotoxic: at 46.1 µM (top of the series)", "procedure,_shortened": "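KB-3-1 cells, DMEM (no phenol red) + 10% FBS; compound by pin transfer, 72 h, 37 °C. Readout: CellTiter-Glo luminescence after 10 min. Data normalized, curve-fitted.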", "values": [{"smiles": "O=C(N/N=C/c1ccc(N2CCCC2)c([N+](=O)[O-])c1)c1cccnc1", "Potency": "inconclusive: 29.1 µM [rising, single point]"}, {"smiles": "Cc1ccc(-c2nc3sc4c(c3c(=O)n2N)CC(C)(C)OC4)cc1", "Potency": "inconclusive: 8.2 µM [rising, partial curve, poor fit]"}, {"smiles": "Brc1ccc(-c2csc(NNC3=NCCCCC3)n2)cc1", "Potency": "inconclusive: 29.1 µM [cytotoxic, single point]"}, {"smiles": "COc1ccc(N2CCN(C(=O)C(=O)c3cn(CC(=O)N4CCCCCC4)c4ccccc34)CC2)cc1", "Potency": "inconclusive: 18.4 µM [cytotoxic, partial curve]"}, {"smiles": "CCOC(=O)C(C)Sc1nc2c(c(-c3cccs3)c1C#N)CCC2", "note": "(stereo not drawn)", "activity change, negative = cytotoxic": "inactive: 8.47%"}, {"smiles": "O=C1NC[C@H](c2ccccc2)OC(=O)[C@H](Cc2ccc(F)cc2)CC/C=C/C[C@@H]1CC(=O)N(CCO)Cc1ccccc1", "activity change, negative = cytotoxic": "inactive: -29.2%"}, {"smiles": "CCOC(=O)c1[nH]c(C)c(CCC(=O)Nc2ccc(C)cc2Cl)c1C", "activity change, negative = cytotoxic": "inactive: 4.93%"}, {"smiles": "O=C(c1ccc(Br)cc1)N1CCC(c2nc3ccccc3s2)CC1", "Potency": "inconclusive: 20.6 µM [cytotoxic, single point]"}, {"smiles": "COc1cc2c(NC3CCN(C)CC3)nc(N3CCCN(C)CC3)nc2cc1OCCCN1CCCCC1", "Potency": "inconclusive: 23.1 µM [cytotoxic, partial curve, poor fit]"}, {"smiles": "COc1cc2c(cc1NC(=O)C(Cl)Cl)-c1ccc(NC(=O)C(Cl)Cl)cc1C2", "Potency": "inconclusive: 18.4 µM [cytotoxic, partial curve, poor fit]"}, {"smiles": "CCOC(=O)c1c(NC(=S)N2CCOCC2)sc2c1CCN(C(=O)OCC)C2", "activity change, negative = cytotoxic": "inactive: -8.35%"}, {"smiles": "CCc1nc2ccc(Cc3ccc4nc(CC)[nH]c4c3)cc2[nH]1", "Potency": "inconclusive: 29.1 µM [cytotoxic, single point]"}, {"smiles": "CCOc1nc(N=C(N)N)nc2c(C)cccc12", "Potency": "inconclusive: 29.1 µM [cytotoxic, single point]"}, {"smiles": "CCOC(=O)c1c(C)[nH]c(C)c1S(=O)(=O)N(C)CC(=O)N1CCN(c2cccc(C)c2C)CC1", "activity change, negative = cytotoxic": "inactive: -8.17%"}, {"smiles": "Nc1[nH][nH]c(=O)c1N=Nc1ccc2c(c1)OCO2", "Potency": "inconclusive: 20.6 µM [cytotoxic, partial curve, poor fit]"}, {"smiles": "CCN(CC)C(=O)C1=C(C)N(CCCOC)C(=O)C(CC(=O)NC2CCCCC2)C1", "note": "(stereo not drawn)", "activity change, negative = cytotoxic": "inactive: 18.7%"}, {"smiles": "N#CC1=C(N)n2c(s/c(=C\\c3ccco3)c2=O)=C(C#N)C1c1ccco1", "note": "(stereo not drawn)", "Potency": "inconclusive: 20.6 µM [cytotoxic, single point]"}, {"smiles": "O=C(CN1CCc2ccccc2C1)Nc1ccccc1C(=O)NC1CC1", "Potency": "inconclusive: 0.231 µM [rising, full curve]"}]}]}
